Measured values: PubChem BioAssay AID504467 (National Center for Advancing Translational Sciences (NCATS), 2011)
The campaign covered roughly 330,000 compounds. About 7,700 (2.3%) were called active. The shares of active, inactive and inconclusive entries below differ from those in the screen. Calls come from the whole dose curve; as a rule, active = well fitted inhibition curve with a large enough effect; inconclusive = small, poorly fitted or top-dose-only effect, or effect the other way; inactive = flat fitted curve, though single readings scatter. Where the call is inconclusive, the potency comes from a doubtful curve fit.

assay: qHTS screen for small molecules that inhibit ELG1-dependent DNA repair in human embryonic kidney (HEK293T) cells expressing luciferase-tagged ELG1; details: HEK293T ELG1-luciferase reporter, luminescence, 16 h, DNA damage induced by 5-fluorouridine; activity change, negative = inhibition: at 46.1 µM (top of the series); note: nearly all actives have a fitted effect of over 55% in size
Procedure, shortened: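 Luminescence from the luciferase reporter, measured 30 min after ONE-Glo reagent at room temperature, was the read-out. Beforehand, 2,000 cells per well were exposed for 16 hr at 37 °C to 5-fluorouridine together with compound or vehicle.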
% is set by controls: 0 for no effect and ±100 for the full control effect; potency is the fitted concentration of half-maximal effect.

Structure (SMILES) | Potency | activity change, negative = inhibition
Cn1ccc(NC(=O)c2ccc(Cl)cc2Cl)n1 | inconclusive: 11.6 µM [activator, partial curve] | 
CC(C(=O)Nc1ccccc1-c1ccccc1)N1CCCCC1 (stereo unspecified) | inactive | 
CC[C@@H](C)[C@@H]1CN([C@@H](C)CN2CCC[C@H]2CN2C(N)=NC[C@H]2CC(C)C)C(=N)N1CCc1ccc(Cl)c(Cl)c1 | inactive | 
O=C(Nc1nccs1)c1ccc(Br)s1 | inconclusive: 20.6 µM [activator, partial curve] | 
O=C(CCCCn1c(=O)[nH]c2ccccc2c1=O)N1CCN(c2cccc(C(F)(F)F)c2)CC1 | inconclusive: 16.4 µM [inhibitor, partial curve] | 
Cc1ccc(Nc2nc(C)nc3c2oc2ccccc23)cc1 | inconclusive: 29.1 µM [inhibitor, single point] | 
C#CCOCCOCCOCCNc1nc(N2CCOCC2)nc(N2CCN(C(=O)[C@H](CC(N)=O)n3cc(C(N)[C@@H](C)CC)nn3)CC2)n1 (stereo partly specified) | inconclusive: 16.4 µM [activator, partial curve, poor fit] | 
CCOC(=O)/C(C#N)=C\c1ccc(N2CCN(C)CC2)cc1 | inactive | 
O=C(Nc1cccs1)Nc1ccc(F)cc1F | inconclusive: 20.6 µM [activator, single point] | 
Cn1c(=N)n(CC(=O)c2ccc(F)cc2)c2ccccc21 | inconclusive: 0.411 µM [activator, partial curve] | 
C=CCCC1(C)C(=O)N(c2ccccc2)c2ccccc21 (stereo unspecified) | inconclusive: 18.4 µM [inhibitor, single point] | 
O=C(Nc1nccs1)c1ccc(S(=O)(=O)NCc2cccs2)cc1 | active: 18.4 µM | 
C/C(Cn1nc([N+](=O)[O-])cc1C)=N\NC(=O)c1ccc(O)cc1O | inconclusive: 20.6 µM [activator, partial curve, poor fit] | 
Cc1ccc(-c2nc3c(cnn3-c3ccccc3)c(=O)o2)cc1 | inconclusive: 23.1 µM [activator, partial curve, poor fit] | 
Cc1ccc(Cl)cc1N1CCN(C(=O)Cc2cn(C)c3ccccc23)CC1 | inconclusive: 25.9 µM [inhibitor, partial curve] | 
Cc1ccc(S(=O)(=O)N2CCC(C(=O)Nc3ccccc3N3CCCCC3)CC2)cc1 | inconclusive: 7.31 µM [inhibitor, partial curve] | 
CC1=NN(S(=O)(=O)c2ccc(Cl)cc2Cl)C(=O)c2ccccc2O1 | inactive | 
C/C(=N\OC(=O)c1cccc(C(F)(F)F)c1)c1sc(-c2ccccc2)nc1C | inconclusive: 2.31 µM [activator, partial curve] | 
COc1ccc(/C=C2\NC(=O)C(C=NCc3ccccc3)=C2O)cc1 | inconclusive: 18.4 µM [activator, partial curve, poor fit] | 
CCC(C)Oc1cc(-c2ccnc(Nc3cccc(Cl)c3)n2)ccn1 (stereo unspecified) | inconclusive: 14.6 µM [inhibitor, partial curve, poor fit] | 
COc1ccc(NC(=O)CCC(=O)c2cccs2)c(OC)c1 | inconclusive: 25.9 µM [activator, single point] | 
Cc1ccccc1CCNC(=O)c1cc(C2CC2)nc2c1cnn2C(C)C | inconclusive: 29.1 µM [inhibitor, single point] | 

Structure (SMILES) | Potency | activity change, negative = inhibition
Cc1ccccc1NC(=O)c1nnn(-c2ccc3c(c2)OCCO3)c1N | inconclusive: 2.91 µM [activator, partial curve] | 
CCC(=O)Nc1ccc(Cl)c(NC(=O)c2cccc(OC)c2)c1 | inconclusive: 16.4 µM [inhibitor, partial curve, poor fit] | 
CC(C)CNc1nc(S(=O)(=O)c2ccccc2)c(Cl)s1 | inconclusive: 23.1 µM [inhibitor, single point] | 
N#C/C(=C(/O)COC(=O)c1ccc(O)cc1)c1nc2ccccc2[nH]1 | inconclusive: 2.91 µM [activator, partial curve, poor fit] | 
CSc1ccc(CCNC(=O)c2cccc3c2C(=O)N(C2CCCCC2)C3)cc1 | inconclusive: 23.1 µM [inhibitor, partial curve, poor fit] | 
CN(C)S(=O)(=O)c1ccc(-c2csc(N/N=C/c3ccco3)n2)cc1 | inconclusive: 3.66 µM [inhibitor, partial curve, poor fit] | 
O=C1COc2ccc(C(=O)COC(=O)c3ccc(F)cc3Cl)cc2N1 | inactive | 
Brc1cccc(CNc2nc3ccccc3n2CCN2CCCCC2)c1 | inconclusive: 1.64 µM [inhibitor, full curve, poor fit] | 
O=C(Nc1cccc(-c2nc3ccccc3[nH]2)c1)c1ccccn1 | inactive | 
CCOC(=O)c1c(NC(=O)COC(=O)CCOc2ccccc2C)sc(C(=O)NC)c1C |  | inconclusive: 14.1% [activator]
COc1cc(C(=O)Nc2nnc(C3CC3)s2)ccc1OCc1c(C)noc1C | inactive | 
O=C(Cc1c(F)cccc1Cl)Nc1cc(S(=O)(=O)N2CCCCC2)ccc1N1CCOCC1 | active: 18.3 µM | 
CCn1c(N2CCN(CC(=O)Nc3cccc(C)c3C)CC2)nc2ccccc21 | inconclusive: 16.4 µM [inhibitor, partial curve, poor fit] | 
OC(C#CCN1CCOCC1)c1cccs1 (stereo unspecified) | inconclusive: 16.4 µM [activator, single point] | 
COc1ccc(COc2cc(-c3cccc(OC)c3)nc3ccc(NC(C)=O)cc23)cc1 | inconclusive: 6.51 µM [inhibitor, single point] | 
COc1cc(C2C3=C(CCCC3=O)Nc3ccc4ncccc4c32)ccc1O (stereo unspecified) | inconclusive: 29.1 µM [activator, single point] | 
CCOC(=O)c1nc(Nc2ccc(C(=O)O)cc2)c2ccccc2n1 | inactive | 
O=C(CN1CCOCC1)Nc1nc2ccc(Br)cc2s1 | inconclusive: 20.6 µM [activator, partial curve, poor fit] | 
CCN1C(=O)[C@H]2[C@@H](c3ccc(-c4cccc(Cl)c4)c(OC)c3)N[C@@](C)(C(=O)OC)[C@H]2C1=O | inconclusive: 22.4 µM [inhibitor, single point] | 
O=C(Nc1ccc(Cl)cc1)Nc1ccccc1C(=O)NCc1ccco1 | inactive | 
Cc1cccc(CC(=O)N2CCC(n3nccc3NC(=O)C3CC3)CC2)c1 | inactive | 
O=C(N/N=C/c1cnc(N2CCOCC2)s1)c1ccccc1 | inconclusive: 18.3 µM [activator, single point] | 

Structure (SMILES) | Potency | activity change, negative = inhibition
CN1CCN(S(=O)(=O)c2ccc(NC(=O)c3ccc(Br)o3)cc2)CC1 | inactive | 
COc1ccc(NC(=O)C2CC(c3c(F)cccc3Cl)=NO2)cc1OC (stereo unspecified) | inconclusive: 35.5 µM [inhibitor, single point] | 
Cc1nn(C)c(C)c1/C=C/C(=O)c1ccccc1 | inconclusive: 2.31 µM [activator, partial curve] | 
COc1ccc(-c2nc(CSCC(=O)NC3CCCc4ccccc43)c(C)o2)cc1 (stereo unspecified) | inconclusive: 18.4 µM [inhibitor, single point] | 
OC12CCCCC1C(c1ccc3c(c1)OCO3)N(Cc1ccc(F)cc1)CC2 (stereo unspecified) | inconclusive: 23.1 µM [inhibitor, partial curve, poor fit] | 
Cc1ccc(C(=O)NCCn2cc(SCC(=O)N3CCOCC3)c3ccccc32)cc1 | inconclusive: 18.4 µM [activator, partial curve] | 
COc1ccc(S(=O)(=O)N2CCc3ccccc32)cc1C(=O)OCc1c(C)noc1C | inconclusive: 29.1 µM [inhibitor, single point] | 
CN(CC(=O)NCc1ccc(F)cc1)CC(=O)Nc1ccc(Cl)c(C(F)(F)F)c1 | inconclusive: 29.1 µM [inhibitor, single point] | 
CCN(CC(=O)NCc1ccc(Cl)cc1)C(=O)/C=C/c1ccc(Cl)c([N+](=O)[O-])c1 | inactive | 
COc1cccc(CNC(=O)CSc2ccc(-c3cccs3)nn2)c1 | inactive | 
CCCCN(CCCC)CCCNC(=O)CN1C(=O)COc2ccc(S(=O)(=O)N3CCC(C)CC3)cc21 | inactive | 
Cc1ccc(Cn2c(=O)n(CCC(=O)NCc3ccc4c(c3)OCO4)c(=O)c3ccccc32)cc1 | inconclusive: 25.9 µM [inhibitor, single point] | 
O=C1CCCCC1Sc1nnc(-c2ccc3c(c2)OCO3)o1 (stereo unspecified) | inconclusive: 0.517 µM [activator, partial curve] | 
O=C(CCCN1C(=O)/C(=C/c2ccccc2Cl)SC1=S)NNC(=O)c1ccc(Cl)cc1Cl | inactive | 
COc1ccccc1CNC(=O)C1(C)Oc2cccnc2NC1=O (stereo unspecified) | inactive | 
CCOC(=O)c1cc(-c2ccccc2)nc2nc(N3CCCCC3)sc12 | inconclusive: 23.1 µM [inhibitor, partial curve] | 
Nc1[nH]n2c(=O)cc(-c3ccccc3)nc2c1N=Nc1ccccc1 | inactive | 
Cc1ccccc1NC(=O)COc1ccc2c(c1)OC(C)(C)CC2=O | inconclusive: 10.3 µM [activator, partial curve] | 
O=C(Nc1ccc(Cl)cc1)Nc1ccccc1Sc1ncc([N+](=O)[O-])s1 | inconclusive: 11.6 µM [activator, partial curve, poor fit] | 
CCCC(=O)N1N=C(c2ccccc2)CC1c1cn(C)c2ccccc12 (stereo unspecified) | inconclusive: 23.1 µM [activator, single point] | 
Fc1ccc(NC(=S)Nc2cccnc2)c(Cl)c1 | inactive | 
COc1ccc(-c2nn(C)c(=O)c3ccccc23)cc1NC(=O)COc1ccccc1 | inconclusive: 25.9 µM [inhibitor, single point] | 

Five of the compounds above, with tabs.
Structure (SMILES)	Potency	activity change, negative = inhibition
OC12CCCCC1C(c1ccc3c(c1)OCO3)N(Cc1ccc(F)cc1)CC2 (stereo unspecified)	inconclusive: 23.1 µM [inhibitor, partial curve, poor fit]	
Cc1ccc(C(=O)NCCn2cc(SCC(=O)N3CCOCC3)c3ccccc32)cc1	inconclusive: 18.4 µM [activator, partial curve]	
COc1ccc(S(=O)(=O)N2CCc3ccccc32)cc1C(=O)OCc1c(C)noc1C	inconclusive: 29.1 µM [inhibitor, single point]	
CN(CC(=O)NCc1ccc(F)cc1)CC(=O)Nc1ccc(Cl)c(C(F)(F)F)c1	inconclusive: 29.1 µM [inhibitor, single point]	
CCN(CC(=O)NCc1ccc(Cl)cc1)C(=O)/C=C/c1ccc(Cl)c([N+](=O)[O-])c1	inactive	
